Results reported in PMC8298264, “Function of cofactor Akirin2 in the regulation of gene expression in model human neutrophil-like HL60 cells” (Bioscience Reports, 2021).

B1: sp¦P33992¦MCM5_HUMAN (protein, UniProt P33992 2-734, looked up)
DNA replication licensing …: SGFDDPGIFYSDSFGGDAQADEGQARKSQLQRRFKEFLRQYRVGTDRTGFTFKYRDELKRHYNLGEYWIEVEMEDLASFDEDLADYLYKQPAEHLQLLEEAAKEVADEVTRPRPSGEEVLQDIQVMLKSDASPSSIRSLKSDMMSHLVKIPGIIIAASAVRAKATRISIQCRSCRNTLTNIAMRPGLEGYALPRKCNTDQAGRPKCPLDPYFIMPDKCKCVDFQTLKLQELPDAVPHGEMPRHMQLYCDRYLCDKVVPGNRVTIMGIYSIKKFGLTTSRGRDRVGVGIRSSYIRVLGIQVDTDGSGRSFAGAVSPQEEEEFRRLAALPNVYEVISKSIAPSIFGGTDMKKAIACLLFGGSRKRLPDGLTRRGDINLLMLGDPGTAKSQLLKFVEKCSPIGVYTSGKGSSAAGLTASVMRDPSSRNFIMEGGAMVLADGGVVCIDEFDKMREDDRVAIHEAMEQQTISIAKAGITTTLNSRCSVLAAANSVFGRWDETKGEDNIDFMPTILSRFDMIFIVKDEHNEERDVMLAKHVITLHVSALTQTQAVEGEIDLAKLKKFIAYCRVKCGPRLSAEAAEKLKNRYIIMRSGARQHERDSDRRSSIPITVRQLEAIVRIAEALSKMKLQPFATEADVEEALRLFQVSTLDAALSGTLSGVEGFTSQEDQEMLSRIEKQLKRRFAIGSQVSEHSIIKDFTKQKYPEHAIHKVLQLMLRRGEIQHRMQRKVLYRLK
B2: sp¦Q99733¦NP1L4_HUMAN (protein, UniProt Q99733 2-375, looked up)
Nucleosome assembly protein …: ADHSFSDGVPSDSVEAAKNASNTEKLTDQVMQNPRVLAALQERLDNVPHTPSSYIETLPKAVKRRINALKQLQVRCAHIEAKFYEEVHDLERKYAALYQPLFDKRREFITGDVEPTDAESEWHSENEEEEKLAGDMKSKVVVTEKAAATAEEPDPKGIPEFWFTIFRNVDMLSELVQEYDEPILKHLQDIKVKFSDPGQPMSFVLEFHFEPNDYFTNSVLTKTYKMKSEPDKADPFSFEGPEIVDCDGCTIDWKKGKNVTVKTIKKKQKHKGRGTVRTITKQVPNESFFNFFNPLKASGDGESLDEDSEFTLASDFEIGHFFRERIVPRAVLYFTGEAIEDDDNFEEGEEGEEEELEGDEEGEDEDDAEINPKV
B3: sp¦Q9NWT1¦PK1IP_HUMAN (protein, UniProt Q9NWT1 1-392, looked up)
p21-activated protein …: MELVAGCYEQVLFGFAVHPEPEACGDHEQWTLVADFTHHAHTASLSAVAVNSRFVVTGSKDETIHIYDMKKKIEHGALVHHSGTITCLKFYGNRHLISGAEDGLICIWDAKKWECLKSIKAHKGQVTFLSIHPSGKLALSVGTDKTLRTWNLVEGRSAFIKNIKQNAHIVEWSPRGEQYVVIIQNKIDIYQLDTASISGTITNEKRISSVKFLSESVLAVAGDEEVIRFFDCDSLVCLCEFKAHENRVKDMFSFEIPEHHVIVSASSDGFIKMWKLKQDKKVPPSLLCEINTNARLTCLGVWLDKVADMKESLPPAAEPSPVSKEQSKIGKKEPGDTVHKEEKRSKPNTKKRGLTGDSKKATKESGLISTKKRKMVEMLEKKRKKKKIKTMQ
B4: sp¦P48047¦ATPO_HUMAN (protein, UniProt P48047 24-213, looked up)
ATP synthase peripheral stalk …: FAKLVRPPVQVYGIEGRYATALYSAASKQNKLEQVEKELLRVAQILKEPKVAASVLNPYVKRSIKVKSLNDITAKERFSPLTTNLINLLAENGRLSNTQGVVSAFSTMMSVHRGEVPCTVTSASPLEEATLSELKTVLKSFLSQGQVLKLEAKTDPSILGGMIVRIGEKYVDMSVKTKIQKLGRAMREIV
B5: sp¦P48735¦IDHP_HUMAN (protein, UniProt P48735 40-452, looked up)
Isocitrate dehydrogenase …: ADKRIKVAKPVVEMDGDEMTRIIWQFIKEKLILPHVDIQLKYFDLGLPNRDQTDDQVTIDSALATQKYSVAVKCATITPDEARVEEFKLKKMWKSPNGTIRNILGGTVFREPIICKNIPRLVPGWTKPITIGRHAHGDQYKATDFVADRAGTFKMVFTPKDGSGVKEWEVYNFPAGGVGMGMYNTDESISGFAHSCFQYAIQKKWPLYMSTKNTILKAYDGRFKDIFQEIFDKHYKTDFDKNKIWYEHRLIDDMVAQVLKSSGGFVWACKNYDGDVQSDILAQGFGSLGLMTSVLVCPDGKTIEAEAAHGTVTRHYREHQKGRPTSTNPIASIFAWTRGLEHRGKLDGNQDLIRFAQMLEKVCVETVESGAMTKDLAGCIHGLSNVKLNEHFLNTTDFLDTIKSNLDRALGRQ

What follows are molecules tested on human HL60 cells (assay: SWATH-MS proteomics, differential protein representation, akirin2 KO vs WT HL60 cells). Conditions: KO vs WT HL60 cells; sheet "Under-represented in KO".
Type: cell-based
In short: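 WT and akirin2 KO HL60 lysates (150 µg, n=3 biological replicates) were FASP trypsin-digested and desalted. A spectral library was built by IDA from 3 µg digests, then 5 µg per sample went to variable-window SWATH DIA over a 120-min 5–30% acetonitrile gradient. Identifications were accepted at 1% global FDR, with total-area-sum normalization.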

Row | Molecule | Fold Change | Log (Fold Change)
1 | B1 | 0.9207 | -0.03589
2 | B2 | 0.9069 | -0.04244
3 | B3 | 0.9201 | -0.03615
4 | B4 | 0.8989 | -0.04627
5 | B5 | 0.9038 | -0.04394
